Patent US20180147134A1, “ANTI-CELL SENESCENCE COSMETIC COMPOSITION, USE OF CASEARIA SYLVESTRIS AND/OR HIMENAEA COURBARIL, METHOD OF PREVENTING CELL SENESCENCE AND A METHOD FOR MODULATING THE EXPRESSION OF B-GALACTOSIDASE, P16, P21 AND/OR IL-8” (Natura Cosméticos S.A., priority 2016, published 2018)
At least one structure is not confirmed: it was looked up by name or label, or the drawing left a doubt.

Legend:
Assay type in all cases: cell-based
[1] = test system: cell senescence-associated lysosomal b-galactosidase; assay: in vitro model of induced early cell aging (cell senescence), UVA/UVB: senescence-associated lysosomal b-galactosidase (flow cytometry and cytochemical marking); conditions: in the presence of agent
transcription factor p16 = assay: in vitro model of induced cell senescence: expression of p16; conditions: protection of the cells with agent
transcription factor p21 = assay: in vitro model of induced cell senescence: expression of p21; conditions: protection of the cells with agent
[2] = test system: inflammatory cytokine IL-8; assay: in vitro model of induced cell senescence: expression of IL-8; conditions: UVA + agent

SMILES: C[C@@H]1C[C@H]2[C@@H]3CCC4=CC(=O)C=C[C@]4(C)[C@@]3(F)[C@@H](O)C[C@]2(C)[C@@]1(O)C(=O)CO [Dexamethasone]
- appearance of b-galactosidase marking induced by UV [1]: reduced
- induced expression of p16 (transcription factor p16): reduces
- induced expression of p21 (transcription factor p21): reduces
- expression of IL-8 [2]: reduced
